# Source: patent publication US20230293458A1, “MULTIBIOTIC AGENTS AND METHODS OF USING THE SAME” (Flagship Pioneering Innovations V, Inc., priority 2017, published 2023)
# Some results were stated once for a whole list of compounds, not compound by compound.
# Test: Stability of multibiotic agents in Simulated Intestinal Fluid (SIF)
# Type: in vitro ADME
# Details: conclusion from the SGF and SIF stability data of Table 1
# Description: Assay 2. Stability of multibiotic agents in Simulated Intestinal Fluid (SIF). This assay can be used to assess the stability of a multibiotic agent in a small intestine. Phosphate buffer was prepared by dissolving 0.42 g of sodium hydroxide pellets and 3.95 g of monobasic sodium phosphate monohydrate and 6.19 g of sodium chloride in ultrapure water (MilliQ®, Millipore Sigma, Darmstadt, Germany). The pH was adjusted to 6.7 using aq. HCl and aq. NaOH, as necessary, and the solution was diluted with ultrapure water to produce 1 L of the pH 6.7 buffer. 112 mg FaSSIF powder (Biorelevant™, London, UK) was dissolved in 50 mL of the pH 6.7 buffer. 2 to 3 mL of the resulting solution were then added to 500 mg pancreatin (Millipore Sigma, Darmstadt, Germany). The resulting mixture was agitated by finger tapping the vessel containing the mixture until milky suspension formed. At this time, the remainder of the 50 mL FaSSiF/pH 6.7 buffer solution was added. The resulting suspension was flipped upside down 10 times to produce SIF, which was used fresh. Test compounds are dissolved in DMSO stock to 1 mM. An aliquot of the DMSO stock solution is removed and diluted in the SIF media in 15 mL falcon tubes to produce a mixture with a tested compound concentration of 1 μM. A 1 mL aliquot is immediately removed and diluted once with 1 volume of acetonitrile for T0 timepoint. The mixture is sealed and agitated at 37° C. in an incubator. Aliquots (1 mL) are removed at regular intervals and immediately quenched by the addition of 1 volume of acetonitrile. The resulting samples are analyzed by LC/MS to determine degradation rates.
row,Structure (SMILES),delivery site concluded from Table 1 (in words)
1,"O=C(CCc1c[nH]c2ccccc12)OC[C@@H](OC(=O)CCc1c[nH]c2ccccc12)[C@H]1OC[C@H](OC(=O)CCc2c[nH]c3ccccc23)[C@H]1OC(=O)CCc1c[nH]c2ccccc12 [Example 107, [(2R)-2-[(2R,3R,4S)-3,4-bis[3-(1H-indol-3-yl)propanoyloxy]tetrahydrofuran-2-yl]-2-[3-(1H-indol-3-yl)propanoyloxy]ethyl] 3-(1H-indol-3-yl)propanoate]",can be delivered at least to the small intestine
2,"O=C(Cc1c[nH]c2ccccc12)O[C@H]1OC[C@@H](OC(=O)Cc2c[nH]c3ccccc23)[C@@H](OC(=O)Cc2c[nH]c3ccccc23)[C@H]1OC(=O)Cc1c[nH]c2ccccc12 [Example 145, [(3R,4R,5R,6R)-4,5,6-tris[[2-(1H-indol-3-yl)acetyl]oxy]tetrahydropyran-3-yl] 2-(1H-indol-3-yl)acetate]",can be delivered at least to the small intestine
3,"CCCC(=O)O[C@H](C)CC(=O)Oc1ccc(/C=C/C(=O)CC(=O)/C=C/c2ccc(OC(=O)C[C@@H](C)OC(=O)CCC)c(OC)c2)cc1OC [Example 73, [4-[(1E,6E)-7-[4-[(3R)-3-butanoyloxybutanoyl]oxy-3-methoxy-phenyl]-3,5-dioxo-hepta-1,6-dienyl]-2-methoxy-phenyl] (3R)-3-butanoyloxybutanoate]",can be delivered at least to the small intestine
4,"O=C(Cc1c[nH]c2ccccc12)O[C@@H]1OC[C@@H](OC(=O)Cc2c[nH]c3ccccc23)[C@@H](OC(=O)Cc2c[nH]c3ccccc23)[C@H]1OC(=O)Cc1c[nH]c2ccccc12 [Example 146, [(3R,4R,5R,6S)-4,5,6-tris[[2-(1H-indol-3-yl)acetyl]oxy]tetrahydropyran-3-yl] 2-(1H-indol-3-yl)acetate]",can be delivered at least to the small intestine
5,"O=C(Cc1c[nH]c2ccccc12)OC[C@@H](O)[C@H](COC(=O)Cc1c[nH]c2ccccc12)OC(=O)Cc1c[nH]c2ccccc12 [Example 104, [(2R,3S)-2-hydroxy-3,4-bis[[2-(1H-indol-3-yl)acetyl]oxy]butyl] 2-(1H-indol-3-yl)acetate]",can be delivered at least to the small intestine
6,"CCCC(=O)O[C@H](C)CCOC(=O)C[C@@H](C)OC(=O)CCC [Example 173, [(3R)-3-butanoyloxybutyl] (3R)-3-butanoyloxybutanoate]",can be delivered at least to the small intestine
7,"CCCC(=O)OCC(OC(=O)CCC)[C@@H](OC(=O)CCC)[C@H](OC(=O)CCC)C(OC(=O)CCC)C(=O)O (stereo in doubt) [Example 113, (2S,3S,4R,5S)-2,3,4,5,6-penta(butanoyloxy)hexanoic acid]",can be delivered at least to the small intestine
8,"CCC(=O)OC1O[C@@H](C)[C@@H](OC(=O)CC)[C@@H](OC(=O)CC)[C@@H]1OC(=O)CC (stereo partly drawn) [Example 157, [(2S,3R,4R,5S)-2-methyl-4,5,6-tri(propanoyloxy)tetrahydropyran-3-yl] propanoate]",can be delivered at least to the small intestine
9,"CC(=O)Oc1ccc(-c2oc3cc(OC(C)=O)cc(OC(C)=O)c3c(=O)c2OC(C)=O)cc1 [Example 169, [4-(3,5,7-triacetoxy-4-oxo-chromen-2-yl)phenyl] acetate]",can be delivered at least to the small intestine
10,"CC(C)(COC(=O)CCc1c[nH]c2ccccc12)[C@@H](OC(=O)CCc1c[nH]c2ccccc12)C(=O)NCCCOC(=O)CCc1c[nH]c2ccccc12 [Example 93, 3-[[(2R)-2,4-bis[3-(1H-indol-3-yl)propanoyloxy]-3,3-dimethyl-butanoyl]amino]propyl 3-(1H-indol-3-yl)propanoate]",can be delivered at least to the small intestine
11,"CC(C)(COC(=O)CCc1c[nH]c2ccccc12)[C@@H](OC(=O)CCc1c[nH]c2ccccc12)C(=O)NCCC(N)=O [Example 98, [(3R)-4-[(3-amino-3-oxo-propyl)amino]-3-[3-(1H-indol-3-yl)propanoyloxy]-2,2-dimethyl-4-oxo-butyl] 3-(1H-indol-3-yl)propanoate]",can be delivered at least to the small intestine
12,"O=C(CCc1c[nH]c2ccccc12)O[C@H]1CO[C@H]2[C@@H]1OC[C@H]2OC(=O)CCc1c[nH]c2ccccc12 [Example 110, [(3S,3aR,6R,6aR)-6-[3-(1H-indol-3-yl)propanoyloxy]-2,3,3a,5,6,6a-hexahydrofuro[3,2-b]furan-3-yl] 3-(1H-indol-3-yl) propanoate]",can be delivered at least to the small intestine
13,"CCCC(=O)OCC1(OC(=O)CCC)OC[C@@H](OC(=O)CCC)[C@H](OC(=O)CCC)[C@@H]1OC(=O)CCC (stereo partly drawn) [Example 163, [(3S,4S,5R)-2,3,4,5-tetra(butanoyloxy)tetrahydropyran-2-yl]methyl butanoate]",can be delivered at least to the small intestine
14,"Cc1ncc(COC(=O)CCc2c[nH]c3ccccc23)c(COC(=O)CCc2c[nH]c3ccccc23)c1OC(=O)CCc1c[nH]c2ccccc12 [Example 103, [5-[3-(1H-indol-3-yl)propanoyloxy]-4-[3-(1H-indol-3-yl)propanoyloxymethyl]-6-methyl-3-pyridyl]methyl3-(1H-indol-3-yl)propanoate]",can be delivered at least to the small intestine
15,"CCCC(=O)O[C@H](C)CC(=O)Oc1ccc2c(c1)oc(=O)c1cc(OC(=O)C[C@@H](C)OC(=O)CCC)c(OC(=O)C[C@@H](C)OC(=O)CCC)cc12 [Example 122, [8,9-bis[[(3R)-3-butanoyloxybutanoyl]oxy]-6-oxo-benzo[c]chromen-3-yl] (3R)-3-butanoyloxybutanoate]",can be delivered at least to the small intestine
16,"O=C(Cc1c[nH]c2ccccc12)Oc1ccc2c(c1)oc(=O)c1cc(OC(=O)Cc3c[nH]c4ccccc34)c(OC(=O)Cc3c[nH]c4ccccc34)cc12 [Example 55, [8,9-bis[[2-(1H-indol-3-yl)acetyl]oxy]-6-oxo-benzo[c]chromen-3-yl] 2-(1H-indol-3-yl)acetate]",can be delivered at least to the small intestine
17,"CCCC(=O)Oc1cc(OC(=O)CCC)c2c(=O)c(OC(=O)CCC)c(-c3ccc(OC(=O)CCC)c(OC(=O)CCC)c3)oc2c1 [Example 75, [2-butanoyloxy-4-[3,5,7-tri(butanoyloxy)-4-oxo-chromen-2-yl]phenyl]butanoate]",can be delivered at least to the small intestine
18,"O=C(Cc1c[nH]c2ccccc12)O[C@H]1[C@@H](OC(=O)Cc2c[nH]c3ccccc23)COC(O)[C@@H]1OC(=O)Cc1c[nH]c2ccccc12 (stereo partly drawn) [Example 147, [(3S,4S,5R)-6-hydroxy-4,5-bis[[2-(1H-indol-3-yl)acetyl]oxy]tetrahydropyran-3-yl] 2-(1H-indol-3-yl)acetate]",can be delivered at least to the small intestine
19,"C[C@@H](O)CC(=O)O[C@H]1CO[C@H]2[C@@H]1OC[C@H]2OC(=O)C[C@@H](C)O [Example 78, [(3S,3aR,6R,6aR)-6-[(3R)-3-hydroxybutanoyl]oxy-2,3,3a,5,6,6a-hexahydrofuro[3,2-b]furan-3-yl] (3R)-3-hydroxybutanoate]",can be delivered at least to the small intestine
